Results taken from article PMC8346013.
Results are given in words; binding and its absence hold for the method and conditions named. Binding calls can cover weak binding; strength is not graded here.

The chains behind the UniProt entries cited, without tags or fusion partners. Where a name states a change or a piece, a line headed by the entry shows the natural chain unless it says otherwise.
UniProt Q6ASS9: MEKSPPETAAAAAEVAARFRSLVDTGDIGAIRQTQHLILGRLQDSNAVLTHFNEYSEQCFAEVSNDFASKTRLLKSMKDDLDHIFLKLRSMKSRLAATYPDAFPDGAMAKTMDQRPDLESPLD
UniProt Q0J0G7: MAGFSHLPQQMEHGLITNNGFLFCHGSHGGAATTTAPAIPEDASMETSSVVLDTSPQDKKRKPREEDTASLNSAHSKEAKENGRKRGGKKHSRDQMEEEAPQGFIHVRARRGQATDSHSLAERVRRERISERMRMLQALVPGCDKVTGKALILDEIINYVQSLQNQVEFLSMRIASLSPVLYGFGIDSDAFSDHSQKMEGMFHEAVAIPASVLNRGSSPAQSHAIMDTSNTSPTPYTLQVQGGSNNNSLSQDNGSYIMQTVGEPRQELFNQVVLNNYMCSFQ
UniProt A3BV95: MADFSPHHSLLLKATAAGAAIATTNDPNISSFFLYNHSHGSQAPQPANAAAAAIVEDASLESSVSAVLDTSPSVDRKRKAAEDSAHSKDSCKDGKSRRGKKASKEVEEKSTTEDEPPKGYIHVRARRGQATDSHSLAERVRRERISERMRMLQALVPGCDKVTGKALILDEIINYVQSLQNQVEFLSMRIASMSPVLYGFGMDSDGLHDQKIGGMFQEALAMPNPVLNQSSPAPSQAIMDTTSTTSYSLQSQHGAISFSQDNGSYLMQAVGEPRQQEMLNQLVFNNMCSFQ
UniProt Q6Z2G7: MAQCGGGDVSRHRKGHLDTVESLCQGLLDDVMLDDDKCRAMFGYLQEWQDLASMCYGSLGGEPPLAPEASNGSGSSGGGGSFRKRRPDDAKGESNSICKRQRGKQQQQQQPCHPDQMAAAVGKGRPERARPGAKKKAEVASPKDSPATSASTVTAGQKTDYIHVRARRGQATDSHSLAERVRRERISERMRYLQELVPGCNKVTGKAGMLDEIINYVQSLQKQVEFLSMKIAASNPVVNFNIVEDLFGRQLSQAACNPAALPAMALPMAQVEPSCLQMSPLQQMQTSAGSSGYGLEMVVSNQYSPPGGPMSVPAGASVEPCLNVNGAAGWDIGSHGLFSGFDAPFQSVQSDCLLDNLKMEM

How the values were obtained:
LO9-177 (rice) = LO9-177 (rice) (UniProt Q6ASS9); assay: two-hybrid; full-length proteins fused to GAL4 BD/AD (pBD-/pAD-GAL4 vectors, Stratagene) in yeast cells; X-gal filter assays
[1] = biological target: OsBUL1 COMPLEX1 (OsBC1) (rice) (UniProt Q0J0G7); assay: as above

binding (LO9-177 (rice)) | binding [1] | Substance
binds | binds | OsBC-Like1 (OsBCL1) (from UniProt A3BV95)
no binding | no binding | OsBC-Like2 (OsBCL2) (from UniProt Q6Z2G7)
